# These are yes or no findings as the source states them, for the method shown. Binding seen in cells or lysates may run through a third protein. Some results given as binding are weak or reduced against the parent protein; the word gives no strength.
# Sequences of proteins named here, by UniProt entry; tags and fusion partners are left off.
# UniProt Q9Y2H1: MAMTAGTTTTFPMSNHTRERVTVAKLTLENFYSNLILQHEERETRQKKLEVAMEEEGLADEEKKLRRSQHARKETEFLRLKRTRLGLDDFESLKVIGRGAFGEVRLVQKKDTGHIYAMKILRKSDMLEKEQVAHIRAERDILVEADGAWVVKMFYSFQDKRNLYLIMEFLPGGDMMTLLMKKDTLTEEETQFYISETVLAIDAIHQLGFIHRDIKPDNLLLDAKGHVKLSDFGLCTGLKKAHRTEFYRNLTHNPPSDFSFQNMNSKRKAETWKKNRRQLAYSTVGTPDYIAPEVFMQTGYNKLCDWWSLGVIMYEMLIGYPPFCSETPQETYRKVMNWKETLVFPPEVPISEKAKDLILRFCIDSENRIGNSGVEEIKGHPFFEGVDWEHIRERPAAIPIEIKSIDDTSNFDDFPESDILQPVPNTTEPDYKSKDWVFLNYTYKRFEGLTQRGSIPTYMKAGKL
# Target: nuclear Dbf2-related kinase 2 (NDR2) (human (endogenous in H2030)) (UniProt Q9Y2H1)
# Experiment: co-IP; Pierce Co-IP Kit on extracts from T75-flask cultures of H2030 cells, non-transfected or transfected with NDR2 PIF, NDR2 KD or empty pcDNA3
binder,measurement,value
"ATG9A (protein, UniProt Q7Z3C6 1-839) MAQFDTEYQRLEASYSDSPPGEEDLLVHVAEGSKSPWHHIENLDLFFSRVYNLHQKNGFTCMLIGEIFELMQFLFVVAFTTFLVSCVDYDILFANKMVNHSLHPTEPVKVTLPDAFLPAQVCSARIQENGSLITILVIAGVFWIHRLIKFIYNICCYWEIHSFYLHALRIPMSALPYCTWQEVQARIVQTQKEHQICIHKRELTELDIYHRILRFQNYMVALVNKSLLPLRFRLPGLGEAVFFTRGLKYNFELILFWGPGSLFLNEWSLKAEYKRGGQRLELAQRLSNRILWIGIANFLLCPLILIWQILYAFFSYAEVLKREPGALGARCWSLYGRCYLRHFNELEHELQSRLNRGYKPASKYMNCFLSPLLTLLAKNGAFFAGSILAVLIALTIYDEDVLAVEHVLTTVTLLGVTVTVCRSFIPDQHMVFCPEQLLRVILAHIHYMPDHWQGNAHRSQTRDEFAQLFQYKAVFILEELLSPIVTPLILIFCLRPRALEIIDFFRNFTVEVVGVGDTCSFAQMDVRQHGHPQWLSAGQTEASVYQQAEDGKTELSLMHFAITNPGWQPPRESTAFLGFLKEQVQRDGAAASLAQGGLLPENALFTSIQSLQSESEPLSLIANVVAGSSCRGPPLPRDLQGSRHRAEVASALRSFSPLQPGQAPTGRAHSTMTGSGVDARTASSGSSVWEGQLQSLVLSEYASTEMSLHALYMHQLHKQQAQAEPERHVWHRRESDESGESAPDEGGEGARAPQSIPRSASYPCAAPRPGAPETTALHGGFQRRYGGITDPGTVPRVPSHFSRLPLGGWAEDGQSASRHPEPVPEEGSEDELPPQVHKV",binding,binds

# Reference: paper PMC12847810
